Test results as given in the supplement of paper PMC10849652.
This is one part of the list. Residues, ends and D or L forms follow the SMILES beside them. *: point of attachment. Cbz = O=C(OCc1ccccc1)*

Chains of the proteins cited; added tags and fusions are not shown. Lines headed by an entry give the natural chain unless they say otherwise; changes in a name come on top.
UniProt Q8WVM0: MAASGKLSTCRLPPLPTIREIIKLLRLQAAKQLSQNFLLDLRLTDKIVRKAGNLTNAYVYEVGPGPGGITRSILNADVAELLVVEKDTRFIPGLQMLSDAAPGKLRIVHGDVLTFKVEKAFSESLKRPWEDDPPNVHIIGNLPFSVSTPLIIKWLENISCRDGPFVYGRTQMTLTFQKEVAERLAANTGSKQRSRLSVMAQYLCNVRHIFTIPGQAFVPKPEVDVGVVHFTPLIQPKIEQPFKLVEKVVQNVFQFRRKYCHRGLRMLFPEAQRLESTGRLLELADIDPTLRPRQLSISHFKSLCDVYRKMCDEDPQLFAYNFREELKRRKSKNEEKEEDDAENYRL
UniProt O43615: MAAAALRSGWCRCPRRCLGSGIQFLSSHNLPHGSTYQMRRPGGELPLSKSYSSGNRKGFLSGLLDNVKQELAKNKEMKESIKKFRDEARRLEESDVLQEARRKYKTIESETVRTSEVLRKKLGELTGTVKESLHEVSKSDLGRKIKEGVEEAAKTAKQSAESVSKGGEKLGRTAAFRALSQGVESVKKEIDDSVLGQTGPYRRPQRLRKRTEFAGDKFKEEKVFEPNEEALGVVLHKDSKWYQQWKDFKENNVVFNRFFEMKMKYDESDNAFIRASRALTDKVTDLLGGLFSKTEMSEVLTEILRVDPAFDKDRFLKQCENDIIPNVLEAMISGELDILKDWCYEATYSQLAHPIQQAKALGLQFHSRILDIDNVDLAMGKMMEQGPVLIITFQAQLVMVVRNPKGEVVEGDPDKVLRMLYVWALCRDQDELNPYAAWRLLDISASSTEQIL
UniProt Q6YHU6: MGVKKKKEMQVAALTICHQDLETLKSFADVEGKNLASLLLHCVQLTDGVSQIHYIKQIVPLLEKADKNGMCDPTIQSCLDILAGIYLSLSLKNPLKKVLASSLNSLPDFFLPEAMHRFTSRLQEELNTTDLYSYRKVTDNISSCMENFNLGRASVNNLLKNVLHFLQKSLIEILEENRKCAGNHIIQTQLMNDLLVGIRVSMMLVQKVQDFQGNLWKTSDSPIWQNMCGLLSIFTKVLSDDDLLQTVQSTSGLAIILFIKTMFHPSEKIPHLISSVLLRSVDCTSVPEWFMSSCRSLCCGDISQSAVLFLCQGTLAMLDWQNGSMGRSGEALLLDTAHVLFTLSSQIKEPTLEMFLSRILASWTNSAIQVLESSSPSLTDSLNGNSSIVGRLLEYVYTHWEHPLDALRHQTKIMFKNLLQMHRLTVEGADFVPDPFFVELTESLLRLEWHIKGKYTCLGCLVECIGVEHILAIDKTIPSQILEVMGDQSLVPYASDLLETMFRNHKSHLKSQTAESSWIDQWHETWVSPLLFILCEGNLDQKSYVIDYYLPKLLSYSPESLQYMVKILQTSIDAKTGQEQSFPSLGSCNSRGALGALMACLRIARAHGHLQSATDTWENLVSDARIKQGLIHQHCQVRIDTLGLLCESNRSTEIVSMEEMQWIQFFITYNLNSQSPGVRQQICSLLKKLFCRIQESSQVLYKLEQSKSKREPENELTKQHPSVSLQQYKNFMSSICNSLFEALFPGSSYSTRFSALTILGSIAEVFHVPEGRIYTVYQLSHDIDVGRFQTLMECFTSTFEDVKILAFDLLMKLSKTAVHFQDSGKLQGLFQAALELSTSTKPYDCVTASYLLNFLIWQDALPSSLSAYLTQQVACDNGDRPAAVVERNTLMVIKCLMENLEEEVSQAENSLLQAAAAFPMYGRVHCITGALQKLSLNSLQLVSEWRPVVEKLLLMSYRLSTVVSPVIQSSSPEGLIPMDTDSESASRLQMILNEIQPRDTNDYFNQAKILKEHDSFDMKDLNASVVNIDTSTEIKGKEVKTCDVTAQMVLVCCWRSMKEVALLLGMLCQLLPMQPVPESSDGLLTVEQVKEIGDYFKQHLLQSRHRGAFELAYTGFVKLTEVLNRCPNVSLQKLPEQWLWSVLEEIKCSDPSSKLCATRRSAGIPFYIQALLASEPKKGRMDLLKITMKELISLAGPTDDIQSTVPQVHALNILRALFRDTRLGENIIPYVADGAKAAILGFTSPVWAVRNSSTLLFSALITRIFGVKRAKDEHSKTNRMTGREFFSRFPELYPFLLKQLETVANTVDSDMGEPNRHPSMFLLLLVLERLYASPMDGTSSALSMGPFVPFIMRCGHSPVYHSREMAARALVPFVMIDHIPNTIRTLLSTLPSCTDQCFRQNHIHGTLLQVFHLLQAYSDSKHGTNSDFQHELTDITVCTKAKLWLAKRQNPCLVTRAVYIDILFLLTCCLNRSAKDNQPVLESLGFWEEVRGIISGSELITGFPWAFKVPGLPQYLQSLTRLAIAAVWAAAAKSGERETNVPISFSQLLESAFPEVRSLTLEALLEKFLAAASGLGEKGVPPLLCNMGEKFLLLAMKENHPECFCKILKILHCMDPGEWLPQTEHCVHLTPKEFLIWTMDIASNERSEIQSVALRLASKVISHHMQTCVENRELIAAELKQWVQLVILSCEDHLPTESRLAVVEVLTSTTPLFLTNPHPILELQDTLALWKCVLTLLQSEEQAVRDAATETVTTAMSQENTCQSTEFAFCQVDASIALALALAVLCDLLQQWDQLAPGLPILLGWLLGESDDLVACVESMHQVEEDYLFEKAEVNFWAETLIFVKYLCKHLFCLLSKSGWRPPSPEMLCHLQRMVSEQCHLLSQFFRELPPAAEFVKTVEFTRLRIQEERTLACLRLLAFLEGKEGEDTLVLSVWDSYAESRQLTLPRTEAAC
UniProt Q96BS2: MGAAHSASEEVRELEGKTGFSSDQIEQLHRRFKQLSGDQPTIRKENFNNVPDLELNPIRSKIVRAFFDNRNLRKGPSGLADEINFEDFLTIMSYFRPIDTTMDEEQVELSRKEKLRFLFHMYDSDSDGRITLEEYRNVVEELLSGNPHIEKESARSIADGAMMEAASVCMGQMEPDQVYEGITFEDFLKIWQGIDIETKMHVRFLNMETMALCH
UniProt O00142: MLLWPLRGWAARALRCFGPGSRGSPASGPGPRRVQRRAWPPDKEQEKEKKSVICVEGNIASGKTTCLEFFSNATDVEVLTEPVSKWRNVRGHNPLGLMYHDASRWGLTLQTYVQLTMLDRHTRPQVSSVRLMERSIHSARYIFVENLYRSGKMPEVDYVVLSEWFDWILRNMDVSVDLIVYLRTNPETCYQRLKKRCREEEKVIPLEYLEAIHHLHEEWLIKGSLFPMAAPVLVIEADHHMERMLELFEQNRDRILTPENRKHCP
UniProt Q9Y5J9: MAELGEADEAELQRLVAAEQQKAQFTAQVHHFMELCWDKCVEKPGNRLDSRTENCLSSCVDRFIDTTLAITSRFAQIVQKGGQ
UniProt Q99595: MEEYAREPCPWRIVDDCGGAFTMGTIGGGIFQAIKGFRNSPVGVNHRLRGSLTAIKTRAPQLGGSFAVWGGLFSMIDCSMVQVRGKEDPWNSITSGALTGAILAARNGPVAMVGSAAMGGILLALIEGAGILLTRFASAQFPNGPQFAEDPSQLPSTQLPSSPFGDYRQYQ
UniProt P52888, whole entry, looked up: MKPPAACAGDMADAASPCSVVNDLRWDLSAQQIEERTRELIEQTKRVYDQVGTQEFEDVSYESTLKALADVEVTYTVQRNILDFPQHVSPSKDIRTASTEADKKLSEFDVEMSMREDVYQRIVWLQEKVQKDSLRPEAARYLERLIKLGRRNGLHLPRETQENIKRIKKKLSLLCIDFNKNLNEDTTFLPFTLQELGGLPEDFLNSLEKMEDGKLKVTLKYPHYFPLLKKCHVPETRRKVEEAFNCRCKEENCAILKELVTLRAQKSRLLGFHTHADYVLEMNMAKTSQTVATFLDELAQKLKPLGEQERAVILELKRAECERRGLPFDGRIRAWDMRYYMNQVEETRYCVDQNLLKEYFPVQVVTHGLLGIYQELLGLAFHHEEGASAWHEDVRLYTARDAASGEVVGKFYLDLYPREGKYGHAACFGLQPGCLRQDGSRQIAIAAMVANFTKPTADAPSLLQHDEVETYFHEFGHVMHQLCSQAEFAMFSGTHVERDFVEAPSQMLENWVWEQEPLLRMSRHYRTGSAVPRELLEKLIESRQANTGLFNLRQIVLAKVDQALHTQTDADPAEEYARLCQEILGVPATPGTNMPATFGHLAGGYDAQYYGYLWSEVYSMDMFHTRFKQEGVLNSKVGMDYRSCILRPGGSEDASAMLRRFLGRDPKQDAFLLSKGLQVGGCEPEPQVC
UniProt Q9NU19: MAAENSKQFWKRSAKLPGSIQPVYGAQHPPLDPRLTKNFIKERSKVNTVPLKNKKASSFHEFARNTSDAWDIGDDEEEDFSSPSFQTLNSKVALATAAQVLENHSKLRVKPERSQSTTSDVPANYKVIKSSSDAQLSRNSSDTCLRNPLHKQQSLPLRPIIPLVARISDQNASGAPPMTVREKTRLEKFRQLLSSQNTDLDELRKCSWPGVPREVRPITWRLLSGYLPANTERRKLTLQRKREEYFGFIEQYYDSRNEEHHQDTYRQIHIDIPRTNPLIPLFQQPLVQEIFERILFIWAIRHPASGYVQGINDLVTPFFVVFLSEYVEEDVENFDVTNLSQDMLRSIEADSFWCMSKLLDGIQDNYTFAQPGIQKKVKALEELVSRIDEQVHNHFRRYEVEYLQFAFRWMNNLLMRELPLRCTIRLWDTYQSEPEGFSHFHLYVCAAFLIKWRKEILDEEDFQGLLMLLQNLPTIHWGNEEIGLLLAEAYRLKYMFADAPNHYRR
UniProt P02786, whole entry, looked up: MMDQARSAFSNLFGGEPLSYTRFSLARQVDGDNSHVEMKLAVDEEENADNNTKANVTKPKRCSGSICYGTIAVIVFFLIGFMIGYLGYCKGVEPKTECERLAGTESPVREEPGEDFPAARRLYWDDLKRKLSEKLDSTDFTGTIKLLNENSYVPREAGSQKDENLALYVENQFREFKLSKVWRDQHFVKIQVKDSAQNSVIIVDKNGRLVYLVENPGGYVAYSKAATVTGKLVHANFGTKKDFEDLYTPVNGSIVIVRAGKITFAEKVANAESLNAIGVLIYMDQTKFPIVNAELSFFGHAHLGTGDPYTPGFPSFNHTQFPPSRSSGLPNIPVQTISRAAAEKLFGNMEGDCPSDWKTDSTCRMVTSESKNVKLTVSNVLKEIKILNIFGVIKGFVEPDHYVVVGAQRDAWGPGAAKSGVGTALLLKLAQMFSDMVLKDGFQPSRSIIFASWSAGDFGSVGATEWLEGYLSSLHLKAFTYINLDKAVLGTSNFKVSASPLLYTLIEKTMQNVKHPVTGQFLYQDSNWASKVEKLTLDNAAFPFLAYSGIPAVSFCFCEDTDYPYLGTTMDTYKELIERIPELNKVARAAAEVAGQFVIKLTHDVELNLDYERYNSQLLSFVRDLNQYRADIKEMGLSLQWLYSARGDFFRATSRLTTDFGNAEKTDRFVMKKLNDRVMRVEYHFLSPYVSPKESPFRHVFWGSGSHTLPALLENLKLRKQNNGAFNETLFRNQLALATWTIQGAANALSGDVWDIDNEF
UniProt Q15582: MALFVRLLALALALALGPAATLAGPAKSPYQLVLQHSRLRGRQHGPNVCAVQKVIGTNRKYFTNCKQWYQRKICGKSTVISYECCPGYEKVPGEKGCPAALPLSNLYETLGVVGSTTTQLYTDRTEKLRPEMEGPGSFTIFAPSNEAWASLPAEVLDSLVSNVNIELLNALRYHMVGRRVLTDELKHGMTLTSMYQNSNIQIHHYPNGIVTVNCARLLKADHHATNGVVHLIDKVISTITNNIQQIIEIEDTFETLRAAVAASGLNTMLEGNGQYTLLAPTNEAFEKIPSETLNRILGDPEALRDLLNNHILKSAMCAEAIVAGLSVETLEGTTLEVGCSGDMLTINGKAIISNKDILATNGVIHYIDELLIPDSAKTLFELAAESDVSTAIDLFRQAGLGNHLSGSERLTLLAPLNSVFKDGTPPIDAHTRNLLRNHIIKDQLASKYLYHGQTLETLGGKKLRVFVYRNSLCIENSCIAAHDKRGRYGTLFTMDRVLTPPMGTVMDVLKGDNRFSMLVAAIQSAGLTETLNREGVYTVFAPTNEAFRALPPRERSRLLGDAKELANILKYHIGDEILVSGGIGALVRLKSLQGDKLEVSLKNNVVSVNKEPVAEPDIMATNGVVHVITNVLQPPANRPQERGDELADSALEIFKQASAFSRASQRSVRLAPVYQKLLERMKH
UniProt P62380: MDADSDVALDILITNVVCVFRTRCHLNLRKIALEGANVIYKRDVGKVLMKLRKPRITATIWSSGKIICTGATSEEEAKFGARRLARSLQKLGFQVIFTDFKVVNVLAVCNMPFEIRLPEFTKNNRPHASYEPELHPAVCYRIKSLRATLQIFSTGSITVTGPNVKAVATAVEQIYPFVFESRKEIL
UniProt Q9NPL8: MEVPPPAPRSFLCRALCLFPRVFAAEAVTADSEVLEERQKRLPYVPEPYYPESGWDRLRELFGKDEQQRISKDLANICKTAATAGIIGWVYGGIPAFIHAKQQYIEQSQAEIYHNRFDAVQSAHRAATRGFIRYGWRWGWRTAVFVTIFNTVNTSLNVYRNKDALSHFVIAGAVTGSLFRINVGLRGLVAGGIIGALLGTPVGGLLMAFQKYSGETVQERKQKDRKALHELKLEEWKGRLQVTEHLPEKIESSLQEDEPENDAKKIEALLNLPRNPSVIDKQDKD

How the values were obtained:
Assay in all cases: log2 fold change, soluble protein after heating vs DMSO (PISA); higher = thermal stabilisation; K562 cells, 10 uM, 30 min; active = over 0.2 and 3.5 SD of the protein, either way, in both replicates (recomputed)
erlotinib = compound: C#Cc1cccc(Nc2ncnc3cc(OCCOC)c(OCCOC)cc23)c1 [erlotinib]
How it was run: (§1)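 Soluble protein was defined as the supernatant after 21,000xg for 90 min. It came from K562 cells at 2×10^6 cells/mL given 10 μM compound for 30 min, heated in aliquots for 3 min across 48°C-58°C, pooled, and extracted in PBS with 0.5% NP-40 at 4°C, and was quantified by TMTpro 16plex LC-MS/MS with equalised channel sums. Thermal stability against control samples, from duplicates, is reported as log2 fold change.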

[1] = compound: C/C(=N\NC(=O)C1=CC(=CC=C1)S(=O)(=O)N2CCOCC2)/C3=C(C=CC(=C3)Cl)O
How it was run: as §1

[2] = compound: C1=CC(=C(C=C1Cl)C2=NC3=NC=CN=C3C(=N2)NC4=CC=NC=C4)F
How it was run: as §1

[3] = compound: C1=CC(=CC=C1C2=NC3=C(N2)C=C(C=C3)C(=O)N)OC4=CC=C(C=C4)Cl
How it was run: as §1

[4] = compound: C1=CC2=C(C=CC(=C2)/C=C\3/C(=O)NC(=NCC4=CC=CS4)S3)N=C1
How it was run: as §1

[5] = compound: C1=CC2=NC=CN=C2C=C1/C=C/3\C(=O)NC(=O)S3
How it was run: as §1

[6] = compound: C1=CC=C(C=C1)C2=NC(=C(N2)C3=CC=NC=C3)C4=CC(=C(C=C4)Cl)O
How it was run: as §1

[7] = compound: C1=CC=C2C(=C1)C3=NNC4=CC=CC(=C43)C2=O
How it was run: as §1

[8] = compound: C1CCN(C1)C(=O)NC2=CC=CC(=C2)NC3=NC=C(C(=N3)NCCC4=CN=CN4)Br
How it was run: as §1

[9] = compound: C1CN(CCC1(CC2=CC=C(C=C2)Cl)N)C3=NC=NC4=C3C=CN4
How it was run: as §1

IRAK-1-4 Inhibitor I = compound: C1COCCN1CCN2C3=CC=CC=C3N=C2NC(=O)C4=CC(=CC=C4)[N+](=O)[O-] [IRAK-1-4 Inhibitor I]
How it was run: as §1

ibrutinib = compound: C=CC(=O)N1CCC[C@@H](n2nc(-c3ccc(Oc4ccccc4)cc3)c3c(N)ncnc32)C1 [ibrutinib]
How it was run: as §1

[10] = compound: CC(=O)c1cnc2ccc(-c3cc(Cl)c(O)c(Cl)c3)nc2c1N[C@H]1CC[C@H](CN(C)C)CC1
How it was run: as §1

ralimetinib = compound: CC(C)(C)Cn1c(N)nc2ccc(-c3[nH]c(C(C)(C)C)nc3-c3ccc(F)cc3)nc21 [ralimetinib]
How it was run: as §1

[11] = compound: CC(C)(O)CC(=O)NCCn1ccc2ncnc(Nc3ccc(Oc4cccc(C(F)(F)F)c4)c(Cl)c3)c21
How it was run: as §1

[12] = compound: CC(C)C1=C2N=C(C=C(N2N=C1)NCC3=CC=CC=C3)NCCCCCCN
How it was run: as §1

[13] = compound: CC(C)C[C@@H](C=O)NC(=O)[C@H](CC(C)C)NC(=O)[C@H](CC(C)C)NC(=O)OCc1ccccc1
How it was run: as §1

pinometostat = compound: CC(C)N(C[C@H]1O[C@@H](n2cnc3c(N)ncnc32)[C@H](O)[C@@H]1O)[C@H]1C[C@@H](CCc2nc3cc(C(C)(C)C)ccc3[nH]2)C1 [pinometostat]
How it was run: as §1

[14] = compound: CC1=C(C(CC(=O)N1)C2=CC=C(C=C2)C(F)(F)F)C(=O)NC3=C(C=C4C(=C3)C=NN4)F
How it was run: as §1

[15] = compound: CC1=C(C2=C(C=C1)C(=O)C3=CC=CC=C3N2CCCN)C
How it was run: as §1

Measured: log2 fold change

TFB1M (UniProt Q8WVM0)
inactive: erlotinib -0.057 | [1] -0.079 | [2] -0.237 | [3] 0.037 | [4] -0.052 | [5] 0.017 | [6] 0.003 | [7] 0.03 | [8] 0.028 | [9] -0.174 | IRAK-1-4 Inhibitor I -0.147 | ibrutinib 0.108 | [10] 0.025 | ralimetinib 0.128 | [11] 0.031 | [12] 0.067 | [13] 0.055 | pinometostat 0.252 | [14] 0.008 | [15] -0.267

TIMM44 (UniProt O43615)
active: [12] -0.399
inactive: erlotinib -0.012 | [1] 0.026 | [2] 0.054 | [3] -0.007 | [4] 0.024 | [5] 0.041 | [6] 0.042 | [7] 0.012 | [8] 0.028 | [9] -0.029 | IRAK-1-4 Inhibitor I 0.066 | ibrutinib -0.061 | [10] -0.065 | ralimetinib -0.039 | [11] -0.171 | [13] 0.006 | pinometostat -0.004 | [15] 0.022

THADA (UniProt Q6YHU6)
inactive: erlotinib 0.039 | [1] 0.068 | [2] 0.03 | [3] 0.035 | [4] 0.071 | [5] 0.007 | [6] 0.029 | [7] -0.002 | [8] -0.011 | [9] -0.006 | IRAK-1-4 Inhibitor I 0.007 | ibrutinib -0.026 | [10] -0.062 | ralimetinib 0.053 | [11] -0.166 | [12] -0.225 | [13] -0.071 | pinometostat 0.016 | [15] -0.047

TESC (UniProt Q96BS2)
inactive: erlotinib -0.029 | [1] -0.015 | [2] 0.075 | [3] 0.126 | [4] 0.066 | [5] 0.023 | [6] 0.001 | [7] -0.018 | [8] 0.02 | [9] -0.01 | IRAK-1-4 Inhibitor I -0.01 | ibrutinib 0.017 | [10] -0.018 | ralimetinib 0.194 | [11] 0.001 | [12] -0.045 | [13] 0.187 | pinometostat -0.009 | [14] -0.011 | [15] -0.277

TK2 isoform 6 (UniProt O00142)
inactive: erlotinib 0.006 | [1] 0.062 | [2] 0.122 | [3] -0.034 | [4] 0.136 | [5] 0.335 | [6] -0.014 | [7] -0.001 | [8] 0.026 | [9] 0.014 | IRAK-1-4 Inhibitor I -0.07 | ibrutinib -0.116 | [10] -0.107 | ralimetinib 0 | [11] -0.051 | [12] 0.128 | [13] -0.044 | pinometostat 0.022 | [14] -0.026 | [15] 0.078

TIMM8B (UniProt Q9Y5J9)
inactive: erlotinib 0 | [1] 0 | [2] 0.539 | [3] -0.051 | [4] -0.006 | [5] 0.077 | [6] 0.036 | [7] 0.027 | [8] -0.087 | [9] -0.1 | IRAK-1-4 Inhibitor I -0.031 | ibrutinib 0.032 | [10] -0.012 | ralimetinib -0.002 | [11] -0.056 | [12] 0.065 | [13] -0.22 | pinometostat -0.08 | [14] 0.132 | [15] 0.357

TIMM17A (UniProt Q99595)
inactive: erlotinib -0.01 | [1] -0.018 | [2] 0.1 | [3] 0.014 | [4] -0.158 | [5] 0.015 | [6] -0.014 | [7] 0.021 | [8] -0.019 | [9] 0.051 | IRAK-1-4 Inhibitor I 0.071 | ibrutinib 0.029 | [10] -0.02 | ralimetinib -0.038 | [11] 0.02 | [12] 0.055 | [13] 0.012 | pinometostat 0.002 | [14] 0.011 | [15] -0.163

THOP1 (UniProt P52888)
inactive: erlotinib 0.008 | [1] -0.008 | [2] 0.031 | [3] 0.003 | [4] -0.017 | [5] 0.037 | [6] 0.039 | [7] -0.024 | [8] -0.018 | [9] 0.064 | IRAK-1-4 Inhibitor I 0.026 | ibrutinib 0.023 | [10] 0.005 | ralimetinib -0.004 | [11] -0.021 | [12] 0.101 | [13] -0.053 | pinometostat -0.061 | [14] 0.032 | [15] -0.001

TBC1D22B (UniProt Q9NU19)
inactive: erlotinib 0.08 | [1] 0.059 | [2] 0.09 | [3] 0 | [4] -0.138 | [5] 0.07 | [6] 0.107 | [7] -0.016 | [8] -0.006 | [9] -0.024 | IRAK-1-4 Inhibitor I -0.029 | ibrutinib 0.003 | [10] -0.053 | ralimetinib -0.007 | [11] -0.198 | [12] -0.034 | [13] -0.044 | pinometostat -0.052 | [14] -0.001 | [15] -0.03

TFRC (UniProt P02786)
inactive: erlotinib 0.002 | [1] 0.017 | [2] 0.022 | [3] 0.006 | [4] 0.037 | [5] 0.027 | [6] 0.023 | [7] -0.011 | [8] 0.006 | [9] 0.055 | IRAK-1-4 Inhibitor I 0.058 | ibrutinib 0.026 | [10] -0.023 | ralimetinib -0.005 | [11] 0.001 | [12] -0.032 | [13] -0.005 | pinometostat -0.02 | [15] -0.03

TGFBI (UniProt Q15582)
inactive: erlotinib 0.003 | [1] -0.018 | [2] 0.054 | [3] 0.009 | [4] 0.132 | [5] 0.034 | [6] 0.009 | [7] -0.133 | [8] -0.037 | [9] 0.029 | IRAK-1-4 Inhibitor I 0.026 | ibrutinib 0.149 | [10] 0.045 | ralimetinib -0.099 | [11] 0.244 | [12] -0.044 | [13] 0.05 | pinometostat -0.092 | [15] -0.039

TBPL1 (UniProt P62380)
inactive: erlotinib -0.041 | [1] 0.172 | [2] 0.138 | [3] 0.056 | [4] 0.027 | [5] -0.043 | [6] 0.094 | [7] 0.024 | [8] -0.033 | [9] 0.047 | IRAK-1-4 Inhibitor I 0.035 | ibrutinib 0 | [10] 0.027 | ralimetinib -0.015 | [11] -0.061 | [12] 0.028 | [13] -0.106 | pinometostat -0.066 | [14] -0.01 | [15] -0.123

TKT, A0A0B4J1R6
inactive: erlotinib 0.088 | [1] -0.16 | [2] -0.133 | [3] -0.071 | [4] 0.245 | [5] -0.015 | [6] -0.143 | [7] 0.035 | [8] 0.155 | [9] 0.014 | IRAK-1-4 Inhibitor I 0.109 | ibrutinib -0.201 | [10] -0.139 | ralimetinib -0.292 | [11] 0.077 | [12] -0.043 | [13] 0.109 | pinometostat -0.177 | [14] 0.004 | [15] 0.044

TIMM9 (UniProt Q9Y5J7)
inactive: erlotinib -0.034 | [1] -0.088 | [2] 0.272 | [3] 0.052 | [4] 0.15 | [5] 0.159 | [6] 0.109 | [7] 0.096 | [8] -0.075 | [9] 0.027 | IRAK-1-4 Inhibitor I -0.055 | ibrutinib 0 | [10] -0.022 | ralimetinib -0.144 | [11] -0.142 | [12] 0.101 | [13] -0.046 | pinometostat -0.101 | [14] 0.024 | [15] 0.202

TIMMDC1 (UniProt Q9NPL8)
inactive: erlotinib -0.021 | [1] -0.034 | [2] 0.051 | [3] -0.019 | [4] 0.064 | [5] 0.02 | [6] 0.082 | [7] -0.025 | [8] 0.019 | [9] 0.07 | IRAK-1-4 Inhibitor I 0.029 | ibrutinib 0.032 | [10] 0.048 | ralimetinib 0.016 | [11] -0.029 | [12] 0.027 | [13] -0.029 | pinometostat -0.049 | [14] 0.025 | [15] -0.054

TBC1D24 (UniProt Q9ULP9)
inactive: erlotinib 0.038 | [1] 0.068 | [2] 0.059 | [3] 0.037 | [4] 0.072 | [5] 0 | [6] 0.048 | [7] 0.053 | [8] 0.042 | [9] 0.157 | IRAK-1-4 Inhibitor I -0.025 | ibrutinib 0.022 | ralimetinib -0.086 | [11] -0.057 | [12] -0.09 | [13] -0.053 | pinometostat 0.04 | [15] 0.142
active: [10] -0.415

2 entries picked at random from those above, as already listed:
TGFBI (UniProt Q15582)
inactive: erlotinib 0.003 | [1] -0.018 | [2] 0.054 | [3] 0.009 | [4] 0.132 | [5] 0.034 | [6] 0.009 | [7] -0.133 | [8] -0.037 | [9] 0.029 | IRAK-1-4 Inhibitor I 0.026 | ibrutinib 0.149 | [10] 0.045 | ralimetinib -0.099 | [11] 0.244 | [12] -0.044 | [13] 0.05 | pinometostat -0.092 | [15] -0.039

TKT, A0A0B4J1R6
inactive: erlotinib 0.088 | [1] -0.16 | [2] -0.133 | [3] -0.071 | [4] 0.245 | [5] -0.015 | [6] -0.143 | [7] 0.035 | [8] 0.155 | [9] 0.014 | IRAK-1-4 Inhibitor I 0.109 | ibrutinib -0.201 | [10] -0.139 | ralimetinib -0.292 | [11] 0.077 | [12] -0.043 | [13] 0.109 | pinometostat -0.177 | [14] 0.004 | [15] 0.044
